System: Sprague Dawley rats
Experiment: Renal function monitoring (urine collection in metabolism cages)
Format: in vivo
Settings: 10 and 30 mg/kg p.o.; 0-8 hour urine collection period

Structure (SMILES): NS(=O)(=O)c1cc(C(=O)O)c(NCc2ccco2)cc1Cl [furosemide]
- Na^+ excretion (natriuresis): dose dependent increase
